Data: PubChem BioAssay AID540256 (National Center for Advancing Translational Sciences (NCATS), 2011)
The campaign covered roughly 300,000 compounds. About 3,700 (1.2%) were called active. The inconclusive results got no clear call from the source; some entries with a clear call stand among them for comparison. The call rests on the fitted dose curve; tested in HEK293 cells. A potency beside an inconclusive call is a rough fit, not a confirmed value.

Experiment: qHTS for Inhibitors of binding or entry into cells for Lassa Virus; further: nearly all actives have a fitted effect of over 50% in size
Details: Lassa virus pseudotype entry inhibition, cell reporter; activity change, negative = inhibition: at 37.9 µM (top of the series) unless noted
On the % scale 0 is the no-effect control and ±100 the full control effect; potency means the concentration at half of the fitted maximal effect.

Compound | Potency | activity change, negative = inhibition
COc1ccc(CCN2CCCC(CN(C)Cc3cc(OC)c(OC)c(OC)c3)C2)cc1 (stereo unspecified) | inconclusive: 25.1 µM [inhibitor, single point] | –
COc1ccccc1-c1nnc(SCCOc2ccccc2C)o1 | inactive | –
CCN(CC)CCNC(=O)c1c(O)c2cccc3c2n(c1=O)CCC3 | inconclusive: 35.5 µM [inhibitor, single point] | –
CSCCC(NC(=O)c1ccccc1Br)C(=O)NC(C)CCc1ccccc1 (stereo unspecified) | inconclusive: 1.41 µM [inhibitor, partial curve, poor fit] | –
Cc1cc(C)c(C#N)c(Cl)n1 | inactive | –
Cc1ccccc1OCc1nnc(SCC(=O)N2c3ccccc3Sc3ccc(Cl)cc32)o1 | inconclusive: 0.0259 µM [inhibitor, full curve, poor fit] | –
Cc1cccn2c(=O)c(C=O)c(Cl)nc12 | inconclusive: 35.5 µM [inhibitor, single point] | –
COc1ccc(-c2cc(C(F)F)n3ncc(C(=O)N4CCN5CCCC5C4)c3n2)cc1 (stereo unspecified) | inconclusive: 29.1 µM [inhibitor, single point] | –
O=C(Cn1nnc2ccccc2c1=O)NC1CCCc2ccccc21 (stereo unspecified) | inconclusive: 0.0092 µM [activator, full curve] | –
CCCNC(=O)c1n[nH]c(=O)c2ccccc12 | inactive | –
Cc1cc(NC(=O)CCOc2ccc(F)cc2)no1 | inconclusive: 3.16 µM [inhibitor, partial curve, poor fit] | –
CC(C)N(Cc1ccccc1)c1ncnc2c1nnn2C | inconclusive: 6.31 µM [inhibitor, single point] | –
CC=Cc1cc2c(c(=O)o1)C(=O)C(O)C(C)O2 (stereo unspecified) | inconclusive: 20 µM [inhibitor, single point] | –
Cc1cccc(C)c1NC(=S)N1CCCN(Cc2ccc(F)cc2)C1 | inactive | –
COc1ccc(NC(=O)C2=C(C)Nc3nc(CCCO)nn3C2c2ccc(O)cc2)cc1 (stereo unspecified) | inconclusive: 1.41 µM [activator, full curve, poor fit] | –
Cc1ccc(C)c(S(=O)(=O)c2nnn3c2nc(N2CCOCC2)c2sccc23)c1 | inconclusive: 3.55 µM [inhibitor, full curve, poor fit] | –
CC(CCN1CCCCc2nc(C)c(C)cc21)=NOC[C@@H](O)[C@H]1O[C@@H]2OC(C)(C)O[C@H]2[C@@H]1O | inconclusive: 0.006 µM [inhibitor, full curve, poor fit] | –
COc1ccc(NC(=O)/C(C#N)=C\C=C\c2ccco2)cc1 | inconclusive: 2.82 µM [inhibitor, partial curve, poor fit] | –
O=C(CSc1ccccc1)N/N=C/c1ccccc1O | inconclusive: 14.1 µM [inhibitor, single point] | –
Cc1cc(CNC(=O)c2cc(COc3ccc(F)c(F)c3)on2)nn1C | inactive | –
Cc1cc(C(=O)OCC(=O)NCc2cccs2)ccc1[N+](=O)[O-] | inconclusive: 2.82 µM [inhibitor, single point] | –
COCCCNC(=O)C(=O)NCC(c1ccc2c(c1)OCO2)N1CCOCC1 (stereo unspecified) | inactive | –

Compound | Potency | activity change, negative = inhibition
CNC(=O)CN(c1ccc(Oc2ccccc2)cc1)S(=O)(=O)c1ccc(C)cc1 | active: 7.08 µM | –
CC1CCCN(C(=O)CN2C(=O)c3ccccc3S2(=O)=O)C1 (stereo unspecified) | inconclusive: 6.31 µM [inhibitor, partial curve] | –
Cc1cc(=O)[nH]c(SCC(=O)Nc2ccc(C)c(S(=O)(=O)N3CCCCC3)c2)n1 | inactive | –
COc1ccc(NC(=O)C(=O)NCCC2CCCCN2S(=O)(=O)c2ccccc2)cc1 (stereo unspecified) | inconclusive: 7.94 µM [inhibitor, partial curve, poor fit] | –
CCOCCCNC(=O)c1ccc(NC(=O)N2CCCCc3ccccc32)cc1 | inconclusive: 35.5 µM [activator, single point] | –
COc1ccccc1N1CCN(c2ccc(=O)n(CC(=O)Nc3ccc(F)c(F)c3)n2)CC1 | inconclusive: 3.98 µM [activator, full curve, poor fit] | –
COc1cc(OC)c(NC(=O)c2sc3ncn(CC(=O)N4CCOCC4)c(=O)c3c2C)cc1Cl | inactive | –
CCOc1ccc(NC(=O)N2CCC(CN3CCc4ccccc4C3)CC2)cc1 | inactive | –
Cc1ccc(-c2nnc(-c3ccccc3S(=O)(=O)Cc3ccc(Cl)cc3)o2)cc1 | inconclusive: 7.08 µM [inhibitor, partial curve] | –
COc1ccc(NC(=O)CN(C)C(=O)c2ccc3c(c2)OCCO3)cc1 | inconclusive: 1 µM [activator, single point] | –
O=C(COC(=O)c1cccnc1Cl)Nc1ncc(Cl)cc1Cl | inconclusive: 5.01 µM [inhibitor, single point] | –
CCn1nnc(NC(=O)c2cc(Cl)c(OC)c(Cl)c2)n1 | inconclusive: 11.2 µM [inhibitor, partial curve] | –
Cc1sc2cc3c(c(C(=O)c4ccccc4)[n+]2c1C)-c1cccc2cccc-3c12 | inconclusive: 23.1 µM [inhibitor, partial curve, poor fit] | –
Cc1ccc(NC(=O)c2cccc(N3CCCS3(=O)=O)c2)cc1 | inactive | –
Cc1c(N=Nc2c(-c3ccc([N+](=O)[O-])cc3)[nH]n(C(N)=S)c2=O)cccc1[N+](=O)[O-] | inconclusive: 10 µM [inhibitor, partial curve, poor fit] | –
CNS(=O)(=O)c1cccc(C(=O)OCC(=O)Nc2ccc(-c3nc4ccc(C)cc4s3)cc2)c1 | inconclusive: 12.6 µM [inhibitor, single point] | –
Cc1ccc(Nc2c(-c3cc(Br)ccc3F)nc3cc(C)ccn23)cc1 | inactive | –
CCN(CC)S(=O)(=O)c1ccc2[nH]cc(C(=O)NCCN3CCCCCC3)c(=O)c2c1 | inconclusive: 5.01 µM [inhibitor, partial curve, poor fit] | –
CCN(CC)S(=O)(=O)c1cc(-c2nnc(Nc3ccc(OC)c(C(N)=O)c3)c3ccccc23)ccc1C | inconclusive: 22.4 µM [inhibitor, single point] | –
Cc1cccc2sc(NC(=O)c3cc(S(=O)(=O)N(C)C)ccc3N3CCCC3)nc12 | inconclusive: 7.08 µM [inhibitor, partial curve, poor fit] | –
Cc1ccc(N(C(=O)COc2ccccc2C)S(=O)(=O)c2ccc(Cl)cc2)cc1 | inconclusive: 15.8 µM [inhibitor, single point] | –
COc1ccc(C2=NOC(C(=O)NCc3ccccc3)C2)cc1 (stereo unspecified) | inconclusive: 16.4 µM [inhibitor, partial curve, poor fit] | –

19 structures out of the list, ordered by length of the SMILES, smallest number first:
Compound | Potency | activity change, negative = inhibition
Cc1cccn2c(=O)c(C=O)c(Cl)nc12 | inconclusive: 35.5 µM [inhibitor, single point] | –
O=C(CSc1ccccc1)N/N=C/c1ccccc1O | inconclusive: 14.1 µM [inhibitor, single point] | –
CC(C)N(Cc1ccccc1)c1ncnc2c1nnn2C | inconclusive: 6.31 µM [inhibitor, single point] | –
CC=Cc1cc2c(c(=O)o1)C(=O)C(O)C(C)O2 (stereo unspecified) | inconclusive: 20 µM [inhibitor, single point] | –
O=C(Cn1nnc2ccccc2c1=O)NC1CCCc2ccccc21 (stereo unspecified) | inconclusive: 0.0092 µM [activator, full curve] | –
COc1ccc(NC(=O)/C(C#N)=C\C=C\c2ccco2)cc1 | inconclusive: 2.82 µM [inhibitor, partial curve, poor fit] | –
Cc1cccc(C)c1NC(=S)N1CCCN(Cc2ccc(F)cc2)C1 | inactive | –
Cc1cc(CNC(=O)c2cc(COc3ccc(F)c(F)c3)on2)nn1C | inactive | –
Cc1cc(C(=O)OCC(=O)NCc2cccs2)ccc1[N+](=O)[O-] | inconclusive: 2.82 µM [inhibitor, single point] | –
CNC(=O)CN(c1ccc(Oc2ccccc2)cc1)S(=O)(=O)c1ccc(C)cc1 | active: 7.08 µM | –
Cc1ccc(C)c(S(=O)(=O)c2nnn3c2nc(N2CCOCC2)c2sccc23)c1 | inconclusive: 3.55 µM [inhibitor, full curve, poor fit] | –
Cc1sc2cc3c(c(C(=O)c4ccccc4)[n+]2c1C)-c1cccc2cccc-3c12 | inconclusive: 23.1 µM [inhibitor, partial curve, poor fit] | –
COc1ccccc1N1CCN(c2ccc(=O)n(CC(=O)Nc3ccc(F)c(F)c3)n2)CC1 | inconclusive: 3.98 µM [activator, full curve, poor fit] | –
CCN(CC)S(=O)(=O)c1ccc2[nH]cc(C(=O)NCCN3CCCCCC3)c(=O)c2c1 | inconclusive: 5.01 µM [inhibitor, partial curve, poor fit] | –
COc1cc(OC)c(NC(=O)c2sc3ncn(CC(=O)N4CCOCC4)c(=O)c3c2C)cc1Cl | inactive | –
CNS(=O)(=O)c1cccc(C(=O)OCC(=O)Nc2ccc(-c3nc4ccc(C)cc4s3)cc2)c1 | inconclusive: 12.6 µM [inhibitor, single point] | –
CCN(CC)S(=O)(=O)c1cc(-c2nnc(Nc3ccc(OC)c(C(N)=O)c3)c3ccccc23)ccc1C | inconclusive: 22.4 µM [inhibitor, single point] | –
Cc1c(N=Nc2c(-c3ccc([N+](=O)[O-])cc3)[nH]n(C(N)=S)c2=O)cccc1[N+](=O)[O-] | inconclusive: 10 µM [inhibitor, partial curve, poor fit] | –
CC(CCN1CCCCc2nc(C)c(C)cc21)=NOC[C@@H](O)[C@H]1O[C@@H]2OC(C)(C)O[C@H]2[C@@H]1O | inconclusive: 0.006 µM [inhibitor, full curve, poor fit] | –

Next part:

Compound | Potency | activity change, negative = inhibition
Cc1ccc(-n2nnnc2/C=C\Nc2cc(C)on2)cc1 | inconclusive: 1.12 µM [inhibitor, full curve, poor fit] | –
COc1ccc(N2C(=O)CSC2c2ccccc2[N+](=O)[O-])cc1 (stereo unspecified) | – | inconclusive: 13.6% [activator]
CCN(Cc1nc2ccccc2c(=O)[nH]1)C(=O)COc1ccccc1Cc1ccccc1 | inconclusive: 11.2 µM [inhibitor, partial curve, poor fit] | –
CCc1cccc(NC(=O)CCc2c(C)nc3c(c2C)c(=O)n(C)c(=O)n3C)c1 | inconclusive: 35.5 µM [inhibitor, single point] | –
Cc1ccc(CNC(=O)CCSCc2ccccc2F)cc1 | inconclusive: 7.08 µM [activator, full curve, poor fit] | –
CCC(C)/C(C)=N/NC(=O)c1ccc(CSc2nc3ccccc3s2)cc1 (stereo unspecified) | inconclusive: 25.1 µM [inhibitor, partial curve, poor fit] | –
Cc1nn(Cc2cccc(C(=O)NC3CCCCC3)c2)c(C)c1Cl | inconclusive: 17.8 µM [inhibitor, single point] | –
O=C(c1ccc([N+](=O)[O-])cc1[N+](=O)[O-])N1CCc2ccccc21 | inactive | –
CCC(C)(C)NC(=O)c1ccc(S(=O)(=O)N2CCCCCC2)cc1 | inconclusive: 5.62 µM [activator, partial curve, poor fit] | –
CCN(C(=O)COC(=O)c1ccc2[nH]c3c(c2c1)CCCC3)C1CCS(=O)(=O)C1 (stereo unspecified) | inactive | –
Cc1cc(NC(=O)c2c(F)cccc2Cl)n(-c2nc3ccccc3[nH]2)n1 | inconclusive: 35.5 µM [inhibitor, single point] | –
Cc1ccc(N2C(=O)N(CC(=O)Nc3ccccc3C)C(=O)C2C)cc1 (stereo unspecified) | inactive | –
CCOC(=O)C1=C(CNCc2ccc(C)cc2)NC(=O)NC1c1ccc(OC)cc1 (stereo unspecified) | inconclusive: 5.01 µM [inhibitor, full curve] | –
Cc1ccc(C)c(NC(=S)NNC(=S)Nc2ccc(C(C)C)cc2)c1 | inconclusive: 4.47 µM [inhibitor, single point] | –
CC(CC(=O)Nc1nccs1)c1ccccc1 (stereo unspecified) | inactive | –
Cc1ccc(C(=O)/C=C/c2ccc(Br)cc2)o1 | inactive | –
Cc1nc(OCC(=O)c2ccc(Cl)cc2)c(C#N)c2c1COC(C)(C)C2 | inactive | –
Cc1cc2c3c(c1)C(C)(c1ccccc1)CC(C)(C)N3C(=O)C21C(C#N)=C(N)OC2=C1C(=O)CC(C)(C)C2 (stereo unspecified) | inconclusive: 29.1 µM [inhibitor, single point] | –
CCCCCCN1C[C@H](O)[C@@H](n2cc(-c3ccc(F)cc3)nn2)C[C@H]1c1ccc(C)cc1 | active: 25 µM | –
CC(C)(C)c1ccc(/C=N/NC(=S)NCc2ccccc2)cc1 | active: 0.259 µM | –
Cc1ccc(C(=O)NNC(=S)NC(=O)COc2ccccc2)cc1 | inactive | –
CN(CC(=O)Nc1ccc(Cl)c(C(F)(F)F)c1)C(=O)Cc1cccs1 | inconclusive: 10 µM [inhibitor, partial curve, poor fit] | –
